For 1 substance, binding results are on record in PMC11178195.

Chains of the proteins cited; added tags and fusions are not shown.
UniProt P35222: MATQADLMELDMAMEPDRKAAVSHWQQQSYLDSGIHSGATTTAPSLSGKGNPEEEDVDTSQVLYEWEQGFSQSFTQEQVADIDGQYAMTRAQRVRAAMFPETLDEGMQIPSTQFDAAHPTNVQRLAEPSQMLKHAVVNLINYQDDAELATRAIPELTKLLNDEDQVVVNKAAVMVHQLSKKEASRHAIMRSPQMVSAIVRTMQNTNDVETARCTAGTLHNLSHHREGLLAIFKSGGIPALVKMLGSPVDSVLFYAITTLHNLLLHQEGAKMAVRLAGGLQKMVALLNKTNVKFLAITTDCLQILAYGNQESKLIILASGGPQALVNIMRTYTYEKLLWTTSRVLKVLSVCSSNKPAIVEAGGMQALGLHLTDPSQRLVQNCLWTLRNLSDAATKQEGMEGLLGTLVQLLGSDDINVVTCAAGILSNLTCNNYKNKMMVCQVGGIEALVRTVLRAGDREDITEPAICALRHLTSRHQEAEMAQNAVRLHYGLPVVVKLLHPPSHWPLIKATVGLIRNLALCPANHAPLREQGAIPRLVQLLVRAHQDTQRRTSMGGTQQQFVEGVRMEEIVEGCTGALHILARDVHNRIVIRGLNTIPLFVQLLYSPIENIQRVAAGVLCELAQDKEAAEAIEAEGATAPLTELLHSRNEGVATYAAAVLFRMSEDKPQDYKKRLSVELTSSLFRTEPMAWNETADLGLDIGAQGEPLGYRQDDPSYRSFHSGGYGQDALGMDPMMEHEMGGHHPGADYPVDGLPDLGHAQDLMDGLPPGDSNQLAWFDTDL

These are yes or no findings as the source states them, for the method shown. In cells and extracts the contact can be indirect. Some results given as binding are weak or reduced against the parent protein; the word gives no strength.

The experiment has as its target T1, Cadherin-11 (human (endogenous in Ewing sarcoma cell lines)) (UniProt P55287).
T1 sequence: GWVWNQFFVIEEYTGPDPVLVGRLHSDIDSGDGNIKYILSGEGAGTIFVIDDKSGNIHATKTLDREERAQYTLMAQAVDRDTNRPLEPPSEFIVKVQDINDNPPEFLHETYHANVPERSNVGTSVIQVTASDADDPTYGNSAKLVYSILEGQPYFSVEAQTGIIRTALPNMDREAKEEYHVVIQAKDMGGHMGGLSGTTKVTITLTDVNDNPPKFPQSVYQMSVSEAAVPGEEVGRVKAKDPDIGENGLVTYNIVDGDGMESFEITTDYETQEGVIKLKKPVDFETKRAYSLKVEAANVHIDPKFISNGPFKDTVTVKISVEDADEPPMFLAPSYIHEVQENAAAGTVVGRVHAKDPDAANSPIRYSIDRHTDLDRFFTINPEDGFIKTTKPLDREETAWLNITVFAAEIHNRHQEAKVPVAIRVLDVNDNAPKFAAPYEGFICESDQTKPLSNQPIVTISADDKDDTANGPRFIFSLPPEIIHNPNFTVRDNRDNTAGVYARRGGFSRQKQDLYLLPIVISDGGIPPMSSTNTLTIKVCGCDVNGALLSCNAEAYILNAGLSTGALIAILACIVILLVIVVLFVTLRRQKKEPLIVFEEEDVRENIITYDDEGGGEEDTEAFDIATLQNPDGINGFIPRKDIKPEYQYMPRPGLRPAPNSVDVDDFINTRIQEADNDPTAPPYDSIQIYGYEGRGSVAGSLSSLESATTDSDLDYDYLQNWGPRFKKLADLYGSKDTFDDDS
Description: co-IP; Pierce Co-immunoprecipitation Kit; endogenous proteins of Ewing sarcoma cells; β-catenin detected by western blot; IgG IP as control. In general terms: Immunoblotting shows a protein as a band on a membrane.

For β-catenin (from UniProt P35222 1-781), the binding entry is listed as “binds”.
